Assay results reported in article PMC3172237.
No constants are given. Whether binding was seen depends on the method and setting. In cells and extracts the contact can be indirect. A yes stands for co-enrichment or nearness to the bait. Other partners may have been found.

Amino acid sequences for entries named in this document (tags omitted).
UniProt A2A8L1: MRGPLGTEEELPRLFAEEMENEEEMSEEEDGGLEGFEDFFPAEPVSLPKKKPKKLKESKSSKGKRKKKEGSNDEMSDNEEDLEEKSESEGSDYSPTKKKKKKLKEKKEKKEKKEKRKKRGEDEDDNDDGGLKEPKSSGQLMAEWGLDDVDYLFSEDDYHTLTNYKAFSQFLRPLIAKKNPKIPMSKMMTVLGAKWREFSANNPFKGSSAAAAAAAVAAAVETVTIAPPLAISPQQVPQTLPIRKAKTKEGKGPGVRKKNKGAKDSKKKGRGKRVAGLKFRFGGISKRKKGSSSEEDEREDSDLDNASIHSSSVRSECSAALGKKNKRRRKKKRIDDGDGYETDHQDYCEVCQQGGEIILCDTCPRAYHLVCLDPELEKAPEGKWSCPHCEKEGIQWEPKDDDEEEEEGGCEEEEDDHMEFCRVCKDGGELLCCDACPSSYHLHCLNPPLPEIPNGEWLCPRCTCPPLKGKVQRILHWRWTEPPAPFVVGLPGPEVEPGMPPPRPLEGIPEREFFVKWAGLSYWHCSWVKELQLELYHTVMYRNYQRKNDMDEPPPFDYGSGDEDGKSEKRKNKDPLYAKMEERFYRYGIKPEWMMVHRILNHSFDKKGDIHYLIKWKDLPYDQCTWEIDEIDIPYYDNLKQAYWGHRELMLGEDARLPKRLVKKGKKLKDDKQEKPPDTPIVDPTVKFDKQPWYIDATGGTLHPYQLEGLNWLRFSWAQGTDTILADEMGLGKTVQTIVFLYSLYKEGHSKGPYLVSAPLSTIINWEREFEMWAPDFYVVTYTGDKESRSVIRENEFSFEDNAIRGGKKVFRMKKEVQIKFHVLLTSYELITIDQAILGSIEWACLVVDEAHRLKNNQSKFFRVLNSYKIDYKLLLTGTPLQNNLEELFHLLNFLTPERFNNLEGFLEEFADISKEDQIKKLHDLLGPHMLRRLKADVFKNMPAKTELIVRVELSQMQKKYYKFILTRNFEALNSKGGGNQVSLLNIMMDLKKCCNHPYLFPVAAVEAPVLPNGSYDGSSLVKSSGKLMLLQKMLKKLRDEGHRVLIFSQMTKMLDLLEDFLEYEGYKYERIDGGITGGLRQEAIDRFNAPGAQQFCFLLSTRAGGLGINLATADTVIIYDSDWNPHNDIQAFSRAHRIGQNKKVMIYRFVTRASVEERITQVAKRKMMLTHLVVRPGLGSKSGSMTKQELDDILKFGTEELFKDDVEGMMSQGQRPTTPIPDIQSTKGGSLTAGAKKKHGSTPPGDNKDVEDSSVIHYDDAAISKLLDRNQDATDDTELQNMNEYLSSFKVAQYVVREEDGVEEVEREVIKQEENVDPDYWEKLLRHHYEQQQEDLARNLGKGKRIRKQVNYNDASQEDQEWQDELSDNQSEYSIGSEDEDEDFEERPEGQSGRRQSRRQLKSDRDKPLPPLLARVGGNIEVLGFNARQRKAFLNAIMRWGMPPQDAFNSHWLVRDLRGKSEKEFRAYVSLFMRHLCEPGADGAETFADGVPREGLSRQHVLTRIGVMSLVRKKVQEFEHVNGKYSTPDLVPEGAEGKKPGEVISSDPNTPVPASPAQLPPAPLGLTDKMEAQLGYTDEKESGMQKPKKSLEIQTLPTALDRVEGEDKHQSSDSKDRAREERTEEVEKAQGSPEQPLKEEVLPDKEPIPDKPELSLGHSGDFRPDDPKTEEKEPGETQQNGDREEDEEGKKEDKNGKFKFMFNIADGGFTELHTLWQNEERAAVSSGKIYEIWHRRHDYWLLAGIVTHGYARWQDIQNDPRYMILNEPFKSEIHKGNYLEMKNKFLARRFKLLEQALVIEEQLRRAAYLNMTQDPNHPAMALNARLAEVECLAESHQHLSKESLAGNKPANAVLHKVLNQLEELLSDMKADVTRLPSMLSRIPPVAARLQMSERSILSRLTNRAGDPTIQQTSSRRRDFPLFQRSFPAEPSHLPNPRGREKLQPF
UniProt P70288: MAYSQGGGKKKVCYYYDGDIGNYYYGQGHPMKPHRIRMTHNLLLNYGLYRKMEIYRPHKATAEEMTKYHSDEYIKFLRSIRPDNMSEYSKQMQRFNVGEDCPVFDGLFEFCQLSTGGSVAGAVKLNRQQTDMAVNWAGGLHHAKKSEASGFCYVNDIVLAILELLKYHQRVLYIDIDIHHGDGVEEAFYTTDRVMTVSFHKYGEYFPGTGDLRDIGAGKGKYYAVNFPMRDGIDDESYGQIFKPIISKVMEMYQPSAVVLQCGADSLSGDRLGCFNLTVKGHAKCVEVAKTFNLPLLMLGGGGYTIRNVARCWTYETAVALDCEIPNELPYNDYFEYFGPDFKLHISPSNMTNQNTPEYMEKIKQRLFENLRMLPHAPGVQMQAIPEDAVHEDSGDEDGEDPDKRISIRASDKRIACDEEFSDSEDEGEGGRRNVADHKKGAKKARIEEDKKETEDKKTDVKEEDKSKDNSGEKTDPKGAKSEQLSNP

Target: CHD5 (mouse (endogenous in mouse brain)) (UniProt A2A8L1)
Test: affinity purification with mass spectrometry; CHD5 antiserum (HD5A-A Day 77) crosslinked to protein A beads; mouse brain nuclear extract (12 mg) diluted 1:4 in RIPA buffer, overnight at 4°C; washed with TX-100 buffer; eluted with 0.1 M glycine pH 2.5; bands cut from an 8% SDS gel and sequenced

With HDAC2 (from UniProt P70288 1-488) the binding was “binds”.
